Results are given in words; binding and its absence hold for the method and conditions named. For part of these data: In cells and extracts the contact can be indirect. Some results given as binding are weak or reduced against the parent protein; the word gives no strength.
How the values were obtained:
[1] = target: Moesin (human (endogenous in primary trophoblasts)) (UniProt P26038); test: far-Western, overlay or dot blot; plasma membrane fractions of cytotrophoblasts or syncytiotrophoblasts resolved by SDS-PAGE and blotted to nitrocellulose; overlaid 16 h at 4 °C with 0.5 μM AnxA5-CF770 alone or with an excess of unlabelled AnxA5 (1 μM); bands that were competed were identified by nanoLC-LTQ Orbitrap mass spectrometry of tryptic digests (Mascot score >30); only the binder purified
[2] = target: β-Catenin (human (endogenous in primary trophoblasts)) (UniProt P35222); test: as above
[3] = target: Radixin (human (endogenous in primary trophoblasts)) (UniProt P35241); test: as above
[4] = target: T1, δ-Catenin (human (endogenous in primary trophoblasts)) (UniProt O60716); test: as above
T1 sequence: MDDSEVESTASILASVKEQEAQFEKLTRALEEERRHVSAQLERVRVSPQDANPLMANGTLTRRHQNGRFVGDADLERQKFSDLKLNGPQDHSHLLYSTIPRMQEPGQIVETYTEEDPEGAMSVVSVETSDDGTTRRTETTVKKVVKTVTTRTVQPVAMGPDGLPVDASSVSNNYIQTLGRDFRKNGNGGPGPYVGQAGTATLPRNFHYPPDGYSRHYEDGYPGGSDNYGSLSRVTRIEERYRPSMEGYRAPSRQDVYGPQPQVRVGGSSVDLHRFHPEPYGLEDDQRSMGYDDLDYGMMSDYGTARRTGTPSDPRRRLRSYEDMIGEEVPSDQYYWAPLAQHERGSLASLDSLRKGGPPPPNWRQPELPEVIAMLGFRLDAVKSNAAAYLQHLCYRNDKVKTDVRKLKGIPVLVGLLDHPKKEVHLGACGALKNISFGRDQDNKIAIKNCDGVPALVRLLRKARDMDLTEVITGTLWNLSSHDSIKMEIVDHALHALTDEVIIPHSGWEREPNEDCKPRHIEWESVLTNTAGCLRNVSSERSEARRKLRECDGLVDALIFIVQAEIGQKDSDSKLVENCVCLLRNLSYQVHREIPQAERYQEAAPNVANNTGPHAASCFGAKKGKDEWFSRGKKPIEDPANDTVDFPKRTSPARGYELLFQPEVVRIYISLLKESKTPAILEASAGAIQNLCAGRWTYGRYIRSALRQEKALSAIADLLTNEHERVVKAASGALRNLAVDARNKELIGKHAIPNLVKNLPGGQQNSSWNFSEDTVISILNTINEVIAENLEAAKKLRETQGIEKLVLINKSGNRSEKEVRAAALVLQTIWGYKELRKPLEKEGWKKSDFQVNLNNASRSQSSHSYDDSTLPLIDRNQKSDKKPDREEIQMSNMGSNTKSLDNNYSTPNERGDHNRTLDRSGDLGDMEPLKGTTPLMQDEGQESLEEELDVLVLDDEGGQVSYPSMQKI

The chains behind the UniProt entries cited, without tags or fusion partners.
UniProt P26038: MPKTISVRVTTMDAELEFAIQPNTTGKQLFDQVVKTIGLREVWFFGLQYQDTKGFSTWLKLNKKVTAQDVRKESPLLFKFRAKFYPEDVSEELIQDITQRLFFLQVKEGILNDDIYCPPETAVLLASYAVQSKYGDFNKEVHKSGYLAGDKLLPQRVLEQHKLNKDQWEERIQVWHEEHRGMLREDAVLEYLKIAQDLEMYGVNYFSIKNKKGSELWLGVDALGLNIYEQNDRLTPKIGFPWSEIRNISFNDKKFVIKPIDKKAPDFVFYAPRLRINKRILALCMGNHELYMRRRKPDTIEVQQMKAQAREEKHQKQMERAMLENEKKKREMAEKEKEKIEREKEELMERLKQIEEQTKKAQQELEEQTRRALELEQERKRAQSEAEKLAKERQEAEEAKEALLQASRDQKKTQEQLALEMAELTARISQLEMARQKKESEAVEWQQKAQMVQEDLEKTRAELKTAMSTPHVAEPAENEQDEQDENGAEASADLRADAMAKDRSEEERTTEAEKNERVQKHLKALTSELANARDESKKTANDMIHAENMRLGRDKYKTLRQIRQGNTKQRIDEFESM
UniProt P35222: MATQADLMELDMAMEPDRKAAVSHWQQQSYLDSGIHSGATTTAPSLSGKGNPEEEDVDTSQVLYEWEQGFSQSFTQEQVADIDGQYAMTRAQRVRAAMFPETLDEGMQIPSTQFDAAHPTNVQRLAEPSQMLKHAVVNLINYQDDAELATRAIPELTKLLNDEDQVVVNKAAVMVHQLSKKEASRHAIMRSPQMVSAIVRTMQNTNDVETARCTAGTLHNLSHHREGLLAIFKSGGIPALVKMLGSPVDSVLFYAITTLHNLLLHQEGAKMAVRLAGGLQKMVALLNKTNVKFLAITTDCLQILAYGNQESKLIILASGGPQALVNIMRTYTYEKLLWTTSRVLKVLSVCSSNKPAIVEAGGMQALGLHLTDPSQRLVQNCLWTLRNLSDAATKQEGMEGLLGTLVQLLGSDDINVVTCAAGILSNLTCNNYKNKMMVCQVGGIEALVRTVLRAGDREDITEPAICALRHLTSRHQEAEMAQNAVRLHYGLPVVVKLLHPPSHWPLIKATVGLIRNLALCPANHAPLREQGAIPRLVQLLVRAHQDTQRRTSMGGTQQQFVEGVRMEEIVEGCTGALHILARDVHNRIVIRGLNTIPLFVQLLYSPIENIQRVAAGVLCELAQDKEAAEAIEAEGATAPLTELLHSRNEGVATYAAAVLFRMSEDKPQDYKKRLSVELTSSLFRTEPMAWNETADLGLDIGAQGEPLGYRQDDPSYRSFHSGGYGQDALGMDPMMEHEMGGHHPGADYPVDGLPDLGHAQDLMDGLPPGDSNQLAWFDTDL
UniProt P35241: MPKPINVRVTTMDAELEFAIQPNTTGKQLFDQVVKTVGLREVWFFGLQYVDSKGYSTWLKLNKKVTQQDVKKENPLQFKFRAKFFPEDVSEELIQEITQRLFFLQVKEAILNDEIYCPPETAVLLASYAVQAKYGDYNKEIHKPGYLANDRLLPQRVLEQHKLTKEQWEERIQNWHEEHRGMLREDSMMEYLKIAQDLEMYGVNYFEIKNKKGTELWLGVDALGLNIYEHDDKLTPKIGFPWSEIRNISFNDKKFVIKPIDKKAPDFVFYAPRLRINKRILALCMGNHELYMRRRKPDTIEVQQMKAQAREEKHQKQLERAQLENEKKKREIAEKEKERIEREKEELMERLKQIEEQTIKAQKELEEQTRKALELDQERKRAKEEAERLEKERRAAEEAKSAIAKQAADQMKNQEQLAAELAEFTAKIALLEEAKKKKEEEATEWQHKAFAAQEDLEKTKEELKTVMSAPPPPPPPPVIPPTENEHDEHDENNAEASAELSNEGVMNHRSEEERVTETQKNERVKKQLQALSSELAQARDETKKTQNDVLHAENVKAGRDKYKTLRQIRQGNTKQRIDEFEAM
UniProt P08758: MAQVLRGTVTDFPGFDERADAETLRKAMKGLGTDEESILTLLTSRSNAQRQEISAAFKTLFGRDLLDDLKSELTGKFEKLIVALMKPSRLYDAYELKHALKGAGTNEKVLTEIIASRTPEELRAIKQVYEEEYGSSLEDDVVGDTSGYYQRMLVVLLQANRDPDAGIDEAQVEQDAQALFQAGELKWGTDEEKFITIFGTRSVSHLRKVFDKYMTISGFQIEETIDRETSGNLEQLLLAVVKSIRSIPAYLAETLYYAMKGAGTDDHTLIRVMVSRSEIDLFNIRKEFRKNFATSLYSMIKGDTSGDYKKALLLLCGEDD

[5] = target: β-Catenin (human (endogenous in primary trophoblasts)) (UniProt P35222); test: proximity ligation; Duolink PLA on permeabilized cytotrophoblasts with pairs of specific antibodies; red spots when proximity <40 nm; negative when either antibody was omitted or replaced by nonspecific IgG
[6] = target: β-Catenin (human (endogenous in primary trophoblasts)) (UniProt P35222); test: co-IP; lysates of cytotrophoblasts cultured 24 h (200 μg protein); antibodies to AnxA5, E-Cadherin, β-Catenin or α-Catenin covalently coupled (BS3) to protein G Dynabeads; immunoblot; control rabbit or mouse IgG
[7] = target: Annexin A5 (human (endogenous in primary trophoblasts)) (UniProt P08758); test: co-IP; lysates of the cytotrophoblast plasma membrane fraction; antibody to AnxA5 coupled to protein G Dynabeads; immunoblot; control IgG
AnxA5-FITC = AnxA5-FITC (UniProt P08758); test: co-IP; primary trophoblasts incubated with AnxA5-FITC; cell lysates precipitated with an antibody against FITC coupled to protein G Dynabeads; immunoblot; only the target purified
[8] = target: Annexin A5 (human (endogenous in primary trophoblasts)) (UniProt P08758); test: co-IP; lysates of cytotrophoblasts cultured 24 h (200 μg protein); antibodies to AnxA5, E-Cadherin, β-Catenin or α-Catenin covalently coupled (BS3) to protein G Dynabeads; immunoblot; control rabbit or mouse IgG

Measured: binding

AnxA5-CF770 (from UniProt P08758 1-320)
binds: [1] | [2] | [3] | [4]

Annexin A5 (from UniProt P08758 1-320)
binds: [5] | [6]

β-Catenin (from UniProt P35222 1-781)
binds: [7] | AnxA5-FITC | [8]
